The values that follow come from article PMC7890977.

In this test the target is T1, Syntaxin 6, endogenous in HEK-APP cells (human (endogenous in HEK293)) (UniProt O43752).
T1 sequence: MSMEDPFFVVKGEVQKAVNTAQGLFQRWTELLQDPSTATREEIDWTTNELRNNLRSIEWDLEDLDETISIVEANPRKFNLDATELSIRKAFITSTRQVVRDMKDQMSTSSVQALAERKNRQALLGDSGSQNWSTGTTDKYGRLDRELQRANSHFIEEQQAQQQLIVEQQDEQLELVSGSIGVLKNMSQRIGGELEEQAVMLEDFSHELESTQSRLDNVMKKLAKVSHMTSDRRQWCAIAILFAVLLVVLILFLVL
Put plainly: co-IP; 100 μg protein extract of HEK-APP cells (lysis buffer 25 mM Tris HCl pH 7.5, 150 mM NaCl, 0.5% Triton X-100); 1 μg mAb anti-CERTL (3A1-C1), anti-Aβ/APP 6E10 or anti-syntaxin 6 (isotype control), 1 h at room temperature; immune complexes brought down with anti-mouse secondary antibodies; Western blot with 6E10 and rabbit pAb anti-CERTs. (In general: In western blotting, separated proteins are transferred to a membrane and probed.)

Results are given in words; binding and its absence hold for the method and conditions named. In cells and extracts the contact can be indirect.

For “Ceramide transfer protein, long isoform (CERTL), endogenous in HEK-APP cells (from UniProt Q9Y5P4-1 1-624)”, the binding result was “no binding”.
